Columns and labels:
[1] = tested on: Plasmodium falciparum 3D7 asexual blood stage; assay: microbe, parasite or virus in culture; conditions: 3D7, read-out: Antiplasmodial IC50 (ABS)
HEK293 cells = assay: HEK293 resazurin cell cytotoxicity assay; conditions: Homo sapiens, HEK293, read-out: HEK % Inhibition 20uM/IC50 Discovery Biology (IA)

**Q.** For `CN1CCC[C@@H]1CCO[C@](C)(c1ccccc1)c1ccc(Cl)cc1` [MMV637229, clemastine, reference compound], which IC50 [1] is on record?
**A.** 2200 nM

**Q.** And the IC50 (HEK293 cells)?
**A.** > 20000 nM

Reference: article PMC5571359, “Screening the Medicines for Malaria Venture Pathogen Box across Multiple Pathogens Reclassifies Starting Points for Open-Source Drug Discovery” (Antimicrobial Agents and Chemotherapy, 2017)
